Results taken from US5705609A, “Decorin fragments inhibiting cell regulatory factors” (La Jolla Cancer Research Foundation, priority 1995, dated 1998).
At least one peptide structure holds a part that was inferred or is arguable (an end, a ring closure or a residue). Where no end group is shown, it is not given here.

By UniProt entry, the sequences of proteins in these tests, tags left out. Residues count along the entry.
UniProt P01137, 279-390 limits assumed: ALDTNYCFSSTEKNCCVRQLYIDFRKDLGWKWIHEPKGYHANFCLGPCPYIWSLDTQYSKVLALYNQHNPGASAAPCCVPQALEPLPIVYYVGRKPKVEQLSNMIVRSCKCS

Assays:
TGF-β [1] = biological target: T1, TGF-β (Homo sapiens, UniProt P01137); experiment: Binding of 125I-TGF-β to L-M(tk-) cells; details: various concentrations of peptide (FIG. 12)
Method: About 2.5×10^4 HepG2 cells or L-M(tk-) cells were incubated with 250 pM[^125 I]TGF-β in the presence of recombinant human decorin (DC-12), PT-71 (MBP), decorin fragments (PT-72, -73, -84, -85, -86 and -87) or anti-TGF-β antibodies for 2 hours at room temperature. Cells were washed with washing buffer (128 mM NaCl, 5 mM KCl, 5 mM […], 1.2 mM CaCl2, 50 mM HEPES, pH 7.5) four times before determination of bound CPM.
The activity of the peptides was evaluated using the L-M(tk-) TGFβ1 binding inhibition assay described in Example VII, except various concentrations of peptide were incubated with the cells and TGFβ1 instead of decorin and recombinant decorin fragments. The negative control was a synthetic peptide corresponding to the first 15 amino acids of decorin, which has the sequence […](SEQ ID NO. 21).

TGF-β [2] = biological target: T1, TGF-β; experiment: Binding of 125I-TGF-β to immobilized decorin with competitors; details: 400 pM 125I-TGF-β pre-incubated with competitor; overnight 0° C.
Method: Immulon wells were coated with 0.5 μg/ml recombinant decorin at 50 μl/well. The wells were placed in a 37° C. incubator overnight and thereafter washed 3 times with 200 μl PBS (0.15M NaCl ) per well to remove unbound decorin. TGF-β labeled with ^125 I (400 pM, New England Nuclear, Bolton-Hunter Labeled) was pre-incubated with or without competitors in 200 μl PBS/0.05% Tween-20 for 1 hour and 45 minutes at room temperature. Competitors included recombinant human decorin preparations (DC-13 and DC-18v), decorin fragments, and MBP as a negative control.
Fifty μl/well of the pre-incubated ^125 I-TGF-β mixture or control were added and incubated overnight at 0° C. Following the incubation, 50 μl of the free TGF-β supernatants were transferred to labeled tubes. The plate was washed 3 times with 0.05% Tween-20 in PBS (200 μl/well). The wells were then transferred into tubes for counting in a gamma counter.
Further binding studies were conducted with soluble N-terminal decorin peptide fragments synthesized and tested for their ability to inhibit TGF-β1 binding to immobilized decorin as described above.

| Substance | inhibition of binding of TGFβ1 to L-M(tk-) cells by synthetic peptides (TGF-β [1]) | inhibition of 125I-TGF-β binding to immobilized decorin (TGF-β [2]) |
| --- | --- | --- |
| HLRVVQS [H31 -S37, HLRVVQS] | inhibited | – |
| HLRVVQSSDLGL [H31 -L42] | inhibited | – |
| HLRVVQCSDLGL [16G] | – | inhibited |
